We go through one sequence from PMC7264223, “Tetrameric architecture of an active phenol-bound form of the AAA^+ transcriptional regulator DmpR” (Nature Communications, 2020).

The data set concerns the target T1, DmpR WT (CapR) (Pseudomonas putida KCTC 1452) (UniProt Q7WSM9).
T1 sequence (looked up): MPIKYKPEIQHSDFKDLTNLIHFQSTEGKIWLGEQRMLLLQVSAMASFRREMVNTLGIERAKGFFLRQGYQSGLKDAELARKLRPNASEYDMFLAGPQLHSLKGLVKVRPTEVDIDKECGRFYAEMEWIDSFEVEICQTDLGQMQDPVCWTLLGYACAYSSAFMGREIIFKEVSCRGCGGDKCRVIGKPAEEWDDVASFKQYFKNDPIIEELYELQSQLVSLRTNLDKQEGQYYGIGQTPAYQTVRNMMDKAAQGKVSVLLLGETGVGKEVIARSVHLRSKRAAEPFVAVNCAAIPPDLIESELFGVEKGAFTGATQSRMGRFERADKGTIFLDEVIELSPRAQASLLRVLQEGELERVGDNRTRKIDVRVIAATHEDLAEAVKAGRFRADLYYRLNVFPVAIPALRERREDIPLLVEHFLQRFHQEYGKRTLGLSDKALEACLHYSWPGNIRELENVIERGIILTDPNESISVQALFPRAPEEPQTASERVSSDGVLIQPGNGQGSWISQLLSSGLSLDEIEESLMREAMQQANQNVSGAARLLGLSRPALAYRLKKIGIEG
The experiment in a line: ITC. Particulars: ITC at 25 C (MicroCal Auto-iTC200), DmpR 10 or 40 uM in cell, DNA 100 uM injectant, ITC buffer not stated, recombinant protein, residues 1-563, protein details: N-terminal 6xHis.

Construct, isoform or probe ends are uncertain for at least one entry. Protein sequences can lack the tags named with them.

Take “GCCATAAGCATTTGCTCAAGCGGCCTTGGGCAATTGATCAAATGCTTAAAAAGT (double strand) [cognate UAS DNA (54 bp, two UASs)]”: the Kd is, setting by setting: (no phenol) 476 nM; (phenol present) 387 nM.

In general, Kd refers to a measure of binding affinity in units of concentration.
